These are yes or no findings as the source states them, for the method shown. In cells and extracts the contact can be indirect. Some entries that bind do so weakly or less than the wild type. Where a sequence is shown, tags or fusion partners need not be part of it.
How the values were obtained:
[1] = target: T1, C2a fragment of human C2 (made by cleavage of C2 with C1s) (human) (UniProt P06681); assay: pull-down and ELISA taken together
T1 sequence (looked up): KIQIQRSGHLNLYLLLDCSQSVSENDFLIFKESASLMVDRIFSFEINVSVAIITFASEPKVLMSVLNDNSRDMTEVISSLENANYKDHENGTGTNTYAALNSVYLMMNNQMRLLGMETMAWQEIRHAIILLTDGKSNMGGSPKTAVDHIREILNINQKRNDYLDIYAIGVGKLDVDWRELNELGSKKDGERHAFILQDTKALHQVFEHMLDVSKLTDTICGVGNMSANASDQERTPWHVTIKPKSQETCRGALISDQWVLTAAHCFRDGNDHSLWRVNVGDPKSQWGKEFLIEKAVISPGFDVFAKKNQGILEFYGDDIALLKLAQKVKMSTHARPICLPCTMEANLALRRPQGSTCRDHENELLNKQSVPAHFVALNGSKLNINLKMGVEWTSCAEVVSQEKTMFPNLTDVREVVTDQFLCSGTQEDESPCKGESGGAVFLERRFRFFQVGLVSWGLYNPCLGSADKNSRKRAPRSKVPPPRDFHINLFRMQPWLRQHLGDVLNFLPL

[2] = target: T1, C2a fragment of human C2 (made by cleavage of C2 with C1s) (human); assay: pull-down with cobalt resin and western blot
[3] = target: T1, C2a fragment of human C2 (made by cleavage of C2 with C1s) (human); assay: pull-down of C1s-cleaved C2 with His-tagged nanobody on cobalt resin, western blot

Measured: binding

B1: Clone 1B10 C2 nanobody (Nab1B10), monovalent, His-tagged (VHH)
VHH: QVQLQESGGGLVQAGGSLRLSCAASGHTFRSYYMGWFRQAPGKEREFVASISWTGGSTEYADSVKGRFTISRDNAKNTVYLQMNSLKPEDTAAYYCAADYSGDFLLSDLDSWGQGTQVTVSS
notes: Alpaca VHH expressed in E. coli BL21 from the pMES4 vector; single 15 kDa band on SDS-PAGE; also called NablBlO; Nabl BIO; not shown: His tag (monovalent form is 'His-tagged', purified on cobalt resin)
binds: all assays above
